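Control-channel Italica luciferase signal in doxycycline-induced 293T-iDUX4 cells, given as percent activity after a 24-hour treatment.
The test concentration is not given here.
Percent change in the Italica control signal; more negative values mean stronger inhibition, which points to nonspecific, tet-on or cytotoxic effects.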

Values are in %.
Common to all entries: measured here: Italica tet-on control reporter.
Part of the compounds only, not a random draw; the main read-out is not listed here.

{"smiles": "CCCNC(=O)N1CC(=O)N2[C@H](C1)[C@@H](c1ccc(C#Cc3ccccc3)cc1)[C@@H]2CO", "activity change (%)": "-26.05"}
{"smiles": "O=C(C[C@H]1CC[C@@H]2[C@H](COC[C@H](O)CN2S(=O)(=O)c2ccc(F)cc2)O1)NCc1ccc(Cl)c(Cl)c1", "activity change (%)": "-17.11"}
{"smiles": "Cc1cccc(S(=O)(=O)N2C[C@@H]3N[C@H](C2)C3c2ccc(-c3ccncc3)cc2)c1", "stereo": "stereo not given in full", "activity change (%)": "1.156"}
{"smiles": "O=C(c1cccnc1)N1CC[C@@H]2[C@H](CO)Nc3ccc(C#Cc4cccnc4)cc3[C@@H]21", "activity change (%)": "-7.13"}
{"smiles": "O=C(Nc1cccc(Cl)c1)N[C@@H]1CC[C@H](CCn2cc(Cc3ccccc3)nn2)O[C@H]1CO", "activity change (%)": "-11.94"}
{"smiles": "COc1cc(CN2CC3(CN(S(=O)(=O)c4cccs4)C3)c3c(n(C)c4cc(OC)ccc34)[C@@H]2CO)cc(OC)c1", "activity change (%)": "-22.78"}
{"smiles": "N#Cc1ccc(-c2ccc(C3[C@H]4CNC[C@@H]3N4S(=O)(=O)c3ccccc3F)cc2)cc1", "stereo": "stereo not given in full", "activity change (%)": "1.775"}
{"smiles": "COc1ccc(C#Cc2ccc([C@@H]3[C@@H](CO)N4CCCCN(C(=O)Cc5cccnc5)C[C@@H]34)cc2)cc1", "activity change (%)": "-36.83"}
{"smiles": "COc1ccc(C#Cc2ccc([C@H]3[C@@H](CO)N4C(=O)CN(C(C)=O)C[C@H]34)cc2)cc1", "activity change (%)": "-4.987"}
{"smiles": "COc1ccc(S(=O)(=O)N2CCCCN3[C@H](CO)[C@H](c4ccc(C#CC(C)C)cc4)[C@@H]3C2)cc1", "activity change (%)": "-39.62"}
{"smiles": "CCC(=O)N1C[C@@H](C)[C@@H](OC)CN(C)C(=O)c2cc(NC(=O)Nc3ccc(Cl)cc3)ccc2OC[C@@H]1C", "activity change (%)": "-21.38"}
{"smiles": "CO[C@@H](C(=O)N(C)C[C@@H]1OCc2ccccc2-c2c(n(C)c3ccccc23)C(=O)N([C@@H](C)CO)C[C@@H]1C)c1ccccc1", "activity change (%)": "-30.88"}
{"smiles": "O=C(C[C@H]1CC[C@H]2[C@@H](COC[C@H](O)CN2Cc2cc(F)ccc2F)O1)NCc1ccc(Cl)cc1", "activity change (%)": "-7.05"}
{"smiles": "O=C(Cc1ccccc1)N1CC2(C1)[C@H](c1ccccc1)[C@@H](CO)N2Cc1cccc(Cl)c1", "activity change (%)": "-27.7"}
{"smiles": "Cc1ccc(S(=O)(=O)N2C[C@@H](O)COC[C@@H]3O[C@@H](CC(=O)NCc4ccc(Cl)c(Cl)c4)CC[C@H]32)cc1", "activity change (%)": "-44.73"}
{"smiles": "COc1ccc2c3c([nH]c2c1)[C@H](CO)N(C(=O)CN(C)C)CC31CN(Cc2ccccc2Cl)C1", "activity change (%)": "-86.54"}
{"smiles": "C[C@H](NC(=O)N(C)C[C@H]1OCc2ccccc2-c2c(n(C)c3ccccc23)C(=O)N([C@@H](C)CO)C[C@@H]1C)c1ccccc1", "activity change (%)": "-19"}
{"smiles": "CN1CCCCN2[C@H](CO)[C@@H](c3ccc(C#Cc4ccccc4F)cc3)[C@@H]2C1", "activity change (%)": "-19.89"}
{"smiles": "COc1cccc(CN2[C@H](CO)[C@@H](c3ccccc3)C23CN(C(=O)C2CCCCC2)C3)c1", "activity change (%)": "7.898"}
{"smiles": "CCC(=O)N1CCC2(CC1)CN(Cc1cc(F)ccc1F)[C@@H](CO)c1[nH]c3cc(OC)ccc3c12", "activity change (%)": "-41.29"}

Some entries from above, unchanged:

| SMILES | activity change (%) |
|---|---|
| `O=C(Nc1cccc(Cl)c1)N[C@@H]1CC[C@H](CCn2cc(Cc3ccccc3)nn2)O[C@H]1CO` | -11.94 |
| `O=C(Cc1ccccc1)N1CC2(C1)[C@H](c1ccccc1)[C@@H](CO)N2Cc1cccc(Cl)c1` | -27.7 |

From PubChem BioAssay record AID1224904 (Broad Institute, 2016).